No constants are given. Whether binding was seen depends on the method and setting. In cells and extracts the contact can be indirect. Some results given as binding are weak or reduced against the parent protein; the word gives no strength.

Amino acid sequences for entries named in this document (tags omitted).
UniProt Q01147: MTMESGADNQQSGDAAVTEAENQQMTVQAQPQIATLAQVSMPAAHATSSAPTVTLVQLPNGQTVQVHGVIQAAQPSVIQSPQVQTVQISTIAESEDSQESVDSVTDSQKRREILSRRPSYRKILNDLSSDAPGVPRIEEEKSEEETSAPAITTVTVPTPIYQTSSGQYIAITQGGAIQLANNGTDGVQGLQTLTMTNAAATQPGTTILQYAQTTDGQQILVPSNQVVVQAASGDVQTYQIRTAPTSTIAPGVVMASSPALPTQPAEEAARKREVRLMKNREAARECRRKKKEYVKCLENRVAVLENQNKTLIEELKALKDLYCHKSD
UniProt P45481: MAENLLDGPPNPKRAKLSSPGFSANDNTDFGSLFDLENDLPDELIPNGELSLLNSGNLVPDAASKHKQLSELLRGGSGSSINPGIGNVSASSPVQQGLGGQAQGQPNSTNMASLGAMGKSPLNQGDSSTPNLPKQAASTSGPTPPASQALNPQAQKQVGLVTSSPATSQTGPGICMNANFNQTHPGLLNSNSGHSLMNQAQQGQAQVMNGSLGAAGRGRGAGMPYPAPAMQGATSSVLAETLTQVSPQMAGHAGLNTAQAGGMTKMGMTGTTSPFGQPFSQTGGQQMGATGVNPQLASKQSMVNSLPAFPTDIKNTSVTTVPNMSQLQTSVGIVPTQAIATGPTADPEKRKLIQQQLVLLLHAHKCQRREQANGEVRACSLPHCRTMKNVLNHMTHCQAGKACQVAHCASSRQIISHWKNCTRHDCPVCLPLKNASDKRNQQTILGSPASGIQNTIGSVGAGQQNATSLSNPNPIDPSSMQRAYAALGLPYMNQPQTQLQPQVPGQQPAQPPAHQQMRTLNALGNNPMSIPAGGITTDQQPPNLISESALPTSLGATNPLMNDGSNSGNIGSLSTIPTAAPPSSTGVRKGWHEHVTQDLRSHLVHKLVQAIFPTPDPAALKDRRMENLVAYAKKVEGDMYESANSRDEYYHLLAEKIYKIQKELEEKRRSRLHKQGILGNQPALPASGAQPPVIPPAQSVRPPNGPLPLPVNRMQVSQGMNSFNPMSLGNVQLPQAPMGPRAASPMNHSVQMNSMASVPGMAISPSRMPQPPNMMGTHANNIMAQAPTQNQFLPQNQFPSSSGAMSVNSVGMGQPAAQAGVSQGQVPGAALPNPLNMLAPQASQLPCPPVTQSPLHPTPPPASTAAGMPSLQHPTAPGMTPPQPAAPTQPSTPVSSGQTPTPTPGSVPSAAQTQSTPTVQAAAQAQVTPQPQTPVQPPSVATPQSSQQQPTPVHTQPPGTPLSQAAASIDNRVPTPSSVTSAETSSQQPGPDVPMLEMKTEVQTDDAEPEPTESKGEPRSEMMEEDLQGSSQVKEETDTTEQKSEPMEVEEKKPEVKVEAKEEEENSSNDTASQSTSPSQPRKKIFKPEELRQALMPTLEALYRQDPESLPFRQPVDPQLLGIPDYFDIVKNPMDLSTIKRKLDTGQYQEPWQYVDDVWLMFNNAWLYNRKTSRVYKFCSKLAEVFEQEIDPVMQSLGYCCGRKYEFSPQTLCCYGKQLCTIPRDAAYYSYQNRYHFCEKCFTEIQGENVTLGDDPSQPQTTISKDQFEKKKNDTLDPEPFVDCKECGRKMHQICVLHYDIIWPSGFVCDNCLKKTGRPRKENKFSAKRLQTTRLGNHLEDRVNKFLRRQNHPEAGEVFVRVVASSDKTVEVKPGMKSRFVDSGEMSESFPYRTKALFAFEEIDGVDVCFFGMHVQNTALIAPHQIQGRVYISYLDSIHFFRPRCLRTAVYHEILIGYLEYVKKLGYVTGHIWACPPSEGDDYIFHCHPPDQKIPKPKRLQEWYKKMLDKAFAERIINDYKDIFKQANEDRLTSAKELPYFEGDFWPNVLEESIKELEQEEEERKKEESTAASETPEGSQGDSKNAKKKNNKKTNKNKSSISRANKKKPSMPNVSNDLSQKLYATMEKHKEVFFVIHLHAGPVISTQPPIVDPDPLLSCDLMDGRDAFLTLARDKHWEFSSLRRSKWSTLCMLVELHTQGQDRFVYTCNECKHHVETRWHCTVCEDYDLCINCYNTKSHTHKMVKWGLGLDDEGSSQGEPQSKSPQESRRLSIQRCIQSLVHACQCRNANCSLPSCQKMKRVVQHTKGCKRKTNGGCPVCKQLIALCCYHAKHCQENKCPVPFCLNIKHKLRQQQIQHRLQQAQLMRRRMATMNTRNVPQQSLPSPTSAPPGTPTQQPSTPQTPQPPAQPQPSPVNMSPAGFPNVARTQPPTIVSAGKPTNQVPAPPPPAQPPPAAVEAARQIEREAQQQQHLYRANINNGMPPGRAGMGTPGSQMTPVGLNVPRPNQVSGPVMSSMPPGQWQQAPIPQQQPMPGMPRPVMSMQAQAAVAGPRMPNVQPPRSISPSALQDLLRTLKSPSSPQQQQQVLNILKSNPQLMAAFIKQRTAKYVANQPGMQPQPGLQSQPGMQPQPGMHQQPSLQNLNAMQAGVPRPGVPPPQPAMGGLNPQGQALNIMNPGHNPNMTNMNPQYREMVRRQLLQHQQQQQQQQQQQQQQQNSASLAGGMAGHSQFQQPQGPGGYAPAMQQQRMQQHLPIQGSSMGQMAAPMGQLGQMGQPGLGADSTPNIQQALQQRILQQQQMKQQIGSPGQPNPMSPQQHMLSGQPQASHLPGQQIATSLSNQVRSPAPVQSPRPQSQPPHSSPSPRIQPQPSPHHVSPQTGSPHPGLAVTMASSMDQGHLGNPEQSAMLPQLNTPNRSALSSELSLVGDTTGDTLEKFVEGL
UniProt Q04207: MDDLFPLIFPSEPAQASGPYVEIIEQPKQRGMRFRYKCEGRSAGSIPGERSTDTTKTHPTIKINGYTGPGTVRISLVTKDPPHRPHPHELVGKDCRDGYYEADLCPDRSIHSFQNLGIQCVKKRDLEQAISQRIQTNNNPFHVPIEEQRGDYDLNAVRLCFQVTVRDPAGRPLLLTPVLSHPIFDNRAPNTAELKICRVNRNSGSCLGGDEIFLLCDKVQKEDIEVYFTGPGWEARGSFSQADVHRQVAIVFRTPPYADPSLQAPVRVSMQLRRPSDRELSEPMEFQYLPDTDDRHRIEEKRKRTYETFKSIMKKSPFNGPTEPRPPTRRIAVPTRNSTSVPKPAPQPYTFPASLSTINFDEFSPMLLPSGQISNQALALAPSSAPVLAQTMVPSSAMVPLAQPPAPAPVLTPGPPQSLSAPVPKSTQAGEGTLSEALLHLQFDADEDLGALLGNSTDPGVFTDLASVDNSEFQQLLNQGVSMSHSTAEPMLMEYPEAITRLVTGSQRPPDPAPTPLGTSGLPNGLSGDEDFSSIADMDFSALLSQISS

Test [1] deals with cAMP response element binding protein (CREB) (mouse (endogenous in CATH.a)) (UniProt Q01147). In words: co-IP; 100 µg pre-cleared CATH.a total lysate with anti-CBP, anti-CREB or anti-p65 NF-κB antibody and Protein G beads, overnight at 4°C; washes with 50 mM Tris-HCl pH 7.5, 150 mM NaCl, 1% Tween-20, 0.05% Na deoxycholate and 50 mM Tris-HCl pH 7.5, 75 mM NaCl, 0.1% Tween-20; western blot; cells with no ligand, Ang II, Los, Ang II+Los.

The target in test [2] is CREB-binding protein (CBP) (mouse (endogenous in CATH.a)) (UniProt P45481). The test is described as above.

For p65 NF-κB (from UniProt Q04207 1-549), the binding result in test [1] is “no binding”.
As for “cAMP response element binding protein (CREB) (from UniProt Q01147 1-327)”, the binding result in test [2] is listed as “binds”.

These data come from article PMC3823855.
